In patent US20090162363A1 (published 2009):
Results are given in words; binding and its absence hold for the method and conditions named. For some assays here: In cells and extracts the contact can be indirect. Some entries that bind do so weakly or less than the wild type. Where a sequence is shown, tags or fusion partners need not be part of it.

B1: R1N (recombinant human PEDF-R1 polypeptide with N-terminal 6xHis tag, from pEXP1-R1N) (receptor)
chain: MFPREKTWNISFAGCGFLGVYYVGVASCLREHAPFLVANATHIYGASAGALTATALVTGVCLGEAGAKFIEVSKEARKRFLGPLHPSFNLVKIIRSFLLKVLPADSHEHASGRLGISLTRVSDGENVIISHFNSKDELIQANVCSGFIPVYCGLIPPSLQGVRYVDGGISDNLPLYELKNTITVSPFSGESDICPQDSSTNIHELRVTNTSIQFNLRNLYRLSKALFPPEPLVLREMCKQGYRDGLRFLQRNGLLNRPNPLLALPPARPHGPEDKDQAVESAQAEDYSQLPGEDHILEHLPARLNEALLEACVEPTDLLTTLSNMLPVRLATAMMVPYTLPLESALSFTIRLLEWLPDVPEDIRWMKEQTGSICQYLVMRAKRKLGRHLPSRLPEQVELRRVQSLPSVPLSCAAYREALPGWMRNNLSLGDALAKWEECQRQLLLGLFCTNVAFPPEALRMRAPADPAPAPADPASPQHQLAGPAPLLSTPAPEARPVIGALGL
B2: recombinant human PEDF protein (pigment epithelium derived factor) (ligand, UniProt P36955 20-418, looked up)
chain: QNPASPPEEGSPDPDSTGALVEEEDPFFKVPVNKLAAAVSNFGYDLYRVRSSTSPTTNVLLSPLSVATALSALSLGAEQRTESIIHRALYYDLISSPDIHGTYKELLDTVTAPQKNLKSASRIVFEKKLRIKSSFVAPLEKSYGTRPRVLTGNPRLDLQEINNWVQAQMKGKLARSTKEIPDEISILLLGVAHFKGQWVTKFDSRKTSLEDFYLDEERTVRVPMMSDPKAVLRYGLDSDLSCKIAQLPLTGSMSIIFFLPLKVTQNLTLIEESLTSEFIHDIDRELKTVQAVLTVPKLKLSYEGEVTKSLQEMKLQSLFDSPDFSKITGKPIKLTQVEHRAGFEWNEDGAGTTPSPGLQPAHLTFPLDYHLNQPFIFVLRDTDTGALLFIGKILDPRGP

Key:
[1] = target: T1, recombinant human PEDF protein (pigment epithelium derived factor) (human) (UniProt P36955); test: His-tag pull-down, solid-phase binding, ultrafiltration and SPR
T1 sequence (looked up): B2 chain

[2] = target: T2, Lumio-R1N protein (human R1 with N-terminal Lumio tag, expressed in COS-7 cells from pLumio-R1N) (human) (UniProt Q96AD5); test: complex formation assay (Centricon-100 ultrafiltration) with cytosolic fraction of COS-7 cells expressing R1
T2 sequence (looked up): B1 chain

Binder | binding [1] | binding [2]
B1 | binds | 
B2 |  | binds
